16 molecules from PubChem BioAssay AID2685 (National Center for Advancing Translational Sciences (NCATS), 2010) can be followed below.

By AC50 is commonly meant the concentration giving half of the maximal activity seen.

SMILES strings stand for the structures. The list shows a part of the results. These are further read-outs of the screen, such as a control signal, another cell line or another target. No call is given for them. Most of these compounds were active or inconclusive in the main read-out, so they are no random draw. The note in brackets gives the kind of curve behind each potency; many fits are weak.

This experiment in a line: qHTS Assay for Lipid Storage Modulators in Drosophila S3 Cells.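 On cell number change: cells counted by Cell Tracker Red CMTPX staining in the red channel.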 To be noted: BODIPY lipid droplet fluorescence, 18-24 h; for cell number change: measured here: cell count max response, cells fed with added oleic acid. Put shortly:
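Drosophila S3 cells got compounds at several concentrations plus oleic acid (400 uM solution). Laser-scanning cytometry with 488 nm excitation read lipid droplets at 500-530 nm and cells at 575-640 nm. Percent activity was relative to 20 uM Triacsin C.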

Setting [1] is: measured here: lipid fluorescence (Fed channel) AC50, cells fed with added oleic acid.
[2] abbreviates: measured here: cell number channel AC50, cells fed with added oleic acid.

For `C[C@@H](CN=[N+]=[N-])CN1CC[C@H](NC(=O)OCc2ccccc2)CCC1=O`, the cell number change is 2.1%. Also, under setting [1], the AC50 was 16.4 µM [falling, single point].

On to `CC(C)OC(=O)C[N+](C)(C)CCN1C(=O)C2C(c3ccccc3)C=CC(c3ccccc3)C2C1=O` (configuration not stated), for which the cell number change came out at 23.9%. In addition, the half-maximal activity concentration (AC50) under setting [1] is 0.461 µM [falling, single point].

As for `CCCCOc1ccc(C(=O)N(CC)CC(=O)NCc2cccs2)cc1`, the cell number change came to 27.6%. Moreover, under setting [1], the AC50 was 10.3 µM [rising, partial curve].

Consider `Cc1cc(Cl)ccc1OCC(=O)OCC(=O)N1CCC(C(N)=O)CC1`, for which the cell number change was -67.3%. Further, the concentration at half-maximal activity (AC50) under setting [2] is 29.1 µM [falling, single point]. Moreover, the AC50 under setting [1] is 3.26 µM [falling, single point].

Turning to `COCc1cccc(C(=O)NC(c2ccccc2)c2ccccc2)c1`, the cell number change was -9.52%.

In the case of `O=C(N/N=C/c1ccc(Cl)c([N+](=O)[O-])c1)C1CC1`, the cell number change turned out to be 10.9%.

Take `O=C(N/N=C/c1ccc(N2CCOCC2)cc1)c1cccs1`: the AC50 was 6.51 µM [rising, single point] under setting [2] and 6.51 µM [rising, partial curve, poor fit] under setting [1].

On to `COc1ccc(CCN(C)C(=O)c2ccc(S(=O)(=O)Nc3ccccc3C)cc2)cc1OC`, for which the cell number change is 32.4%. For the same molecule, the AC50 under setting [2] was 1.84 µM [rising, full curve, poor fit].

With `O=C(O)C1CC(=O)N(Cc2cccnc2)C1` (configuration not stated), the cell number change is -0.561%. The AC50 under setting [1] is 0.0058 µM [falling, full curve, poor fit].

For the molecule `COc1ccc(C[C@H]2CN3C(=NC[C@@H]3Cc3ccccc3)N2C[C@H](C)NC(=O)CCC2CCCCC2)cc1`, the cell number change is -38.8%. Also, under setting [2], the AC50 was 18.4 µM [falling, partial curve]. The AC50 under setting [1] was 18.4 µM [falling, single point].

`Cc1cccc(C(=O)N/N=C/c2cc(Br)c(Br)o2)c1`: the cell number change is -2.76%. In addition, the concentration at half-maximal activity (AC50) under setting [1] is 6.51 µM [falling, single point].

As to `CCOC(=O)Cc1ccc(NC(=O)c2ccc(C(C)(C)C)cc2)cc1`, the cell number change is -14.5%. The half-maximal activity concentration (AC50) under setting [1] is 6.51 µM [rising, single point].

For `CCOc1ccc(N2CC(C(=O)Nc3ccccc3N3CCOCC3)CC2=O)cc1` (configuration not stated), the cell number change was found to be 115%. Under setting [2], the concentration at half-maximal activity (AC50) was 10.3 µM [rising, partial curve]. Under setting [1], the AC50 was 6.51 µM [rising, partial curve].

Consider `Cc1cc(C)c2c(c1)OC(O)(C(F)F)CC2=O` (configuration not stated), for which the cell number change came out at 1.97%.

Take `COC(=O)c1ccc(C(=O)N2CCCC(Nc3ccc(F)c(F)c3)C2)cc1` (configuration not stated): the cell number change came to 18.8%. Besides, the AC50 under setting [1] was 29.1 µM [rising, single point].

Turning to `CCCCc1ccc(NC(=S)NCc2cccs2)cc1`, the cell number change is -15.6%. In addition, the AC50 under setting [1] is 6.51 µM [rising, single point].
